Drawing on PMC7312997, this text covers binding for 9 molecules.

The chains behind the UniProt entries cited, without tags or fusion partners.
UniProt P20700: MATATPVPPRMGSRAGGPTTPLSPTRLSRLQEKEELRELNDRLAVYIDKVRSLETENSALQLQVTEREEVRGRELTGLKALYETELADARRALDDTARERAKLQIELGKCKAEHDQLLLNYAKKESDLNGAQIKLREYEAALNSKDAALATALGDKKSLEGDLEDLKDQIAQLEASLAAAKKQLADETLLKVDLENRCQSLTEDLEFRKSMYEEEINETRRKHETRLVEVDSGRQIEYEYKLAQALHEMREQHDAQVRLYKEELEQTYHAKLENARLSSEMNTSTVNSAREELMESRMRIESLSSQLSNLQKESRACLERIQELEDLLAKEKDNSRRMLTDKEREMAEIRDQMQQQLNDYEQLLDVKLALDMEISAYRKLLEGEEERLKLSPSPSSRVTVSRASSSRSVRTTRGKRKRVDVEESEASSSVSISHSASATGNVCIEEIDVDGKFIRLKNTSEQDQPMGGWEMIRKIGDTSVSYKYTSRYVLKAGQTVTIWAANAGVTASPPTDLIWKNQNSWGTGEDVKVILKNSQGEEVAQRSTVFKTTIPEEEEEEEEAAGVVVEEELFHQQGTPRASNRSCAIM
UniProt P52701: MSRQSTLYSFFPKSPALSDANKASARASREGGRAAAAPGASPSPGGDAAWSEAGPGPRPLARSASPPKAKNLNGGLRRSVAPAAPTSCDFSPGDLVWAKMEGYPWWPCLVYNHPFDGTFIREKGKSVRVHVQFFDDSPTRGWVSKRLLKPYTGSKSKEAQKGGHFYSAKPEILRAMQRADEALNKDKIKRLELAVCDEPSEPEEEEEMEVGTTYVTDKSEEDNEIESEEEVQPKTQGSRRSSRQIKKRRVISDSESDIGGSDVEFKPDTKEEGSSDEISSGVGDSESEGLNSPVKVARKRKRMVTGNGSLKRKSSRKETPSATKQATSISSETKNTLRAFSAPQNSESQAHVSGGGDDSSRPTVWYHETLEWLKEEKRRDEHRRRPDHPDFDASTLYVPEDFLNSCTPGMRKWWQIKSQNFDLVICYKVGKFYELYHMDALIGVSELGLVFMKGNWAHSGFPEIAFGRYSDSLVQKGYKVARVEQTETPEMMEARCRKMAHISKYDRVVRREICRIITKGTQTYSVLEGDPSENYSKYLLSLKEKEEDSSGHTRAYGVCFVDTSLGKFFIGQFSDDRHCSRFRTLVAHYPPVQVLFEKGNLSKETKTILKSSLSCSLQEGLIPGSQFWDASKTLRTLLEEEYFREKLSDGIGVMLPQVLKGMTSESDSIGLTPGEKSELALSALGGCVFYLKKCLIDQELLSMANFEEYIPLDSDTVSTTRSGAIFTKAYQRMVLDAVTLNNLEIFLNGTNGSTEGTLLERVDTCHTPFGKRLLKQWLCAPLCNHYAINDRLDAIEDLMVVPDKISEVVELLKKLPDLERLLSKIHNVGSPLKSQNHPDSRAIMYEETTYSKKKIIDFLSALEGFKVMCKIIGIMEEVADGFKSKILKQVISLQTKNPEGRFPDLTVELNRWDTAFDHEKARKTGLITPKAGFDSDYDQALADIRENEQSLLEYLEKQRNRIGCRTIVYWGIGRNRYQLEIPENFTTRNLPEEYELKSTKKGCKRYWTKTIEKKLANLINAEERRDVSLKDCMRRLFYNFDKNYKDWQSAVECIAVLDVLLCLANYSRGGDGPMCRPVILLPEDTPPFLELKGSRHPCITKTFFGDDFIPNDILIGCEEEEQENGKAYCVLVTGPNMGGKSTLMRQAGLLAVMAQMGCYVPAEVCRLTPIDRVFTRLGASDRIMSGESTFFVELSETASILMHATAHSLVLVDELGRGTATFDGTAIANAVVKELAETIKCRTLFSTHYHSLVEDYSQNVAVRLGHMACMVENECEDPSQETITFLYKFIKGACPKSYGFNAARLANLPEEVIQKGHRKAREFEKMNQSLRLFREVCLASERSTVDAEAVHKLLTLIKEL
UniProt P28340: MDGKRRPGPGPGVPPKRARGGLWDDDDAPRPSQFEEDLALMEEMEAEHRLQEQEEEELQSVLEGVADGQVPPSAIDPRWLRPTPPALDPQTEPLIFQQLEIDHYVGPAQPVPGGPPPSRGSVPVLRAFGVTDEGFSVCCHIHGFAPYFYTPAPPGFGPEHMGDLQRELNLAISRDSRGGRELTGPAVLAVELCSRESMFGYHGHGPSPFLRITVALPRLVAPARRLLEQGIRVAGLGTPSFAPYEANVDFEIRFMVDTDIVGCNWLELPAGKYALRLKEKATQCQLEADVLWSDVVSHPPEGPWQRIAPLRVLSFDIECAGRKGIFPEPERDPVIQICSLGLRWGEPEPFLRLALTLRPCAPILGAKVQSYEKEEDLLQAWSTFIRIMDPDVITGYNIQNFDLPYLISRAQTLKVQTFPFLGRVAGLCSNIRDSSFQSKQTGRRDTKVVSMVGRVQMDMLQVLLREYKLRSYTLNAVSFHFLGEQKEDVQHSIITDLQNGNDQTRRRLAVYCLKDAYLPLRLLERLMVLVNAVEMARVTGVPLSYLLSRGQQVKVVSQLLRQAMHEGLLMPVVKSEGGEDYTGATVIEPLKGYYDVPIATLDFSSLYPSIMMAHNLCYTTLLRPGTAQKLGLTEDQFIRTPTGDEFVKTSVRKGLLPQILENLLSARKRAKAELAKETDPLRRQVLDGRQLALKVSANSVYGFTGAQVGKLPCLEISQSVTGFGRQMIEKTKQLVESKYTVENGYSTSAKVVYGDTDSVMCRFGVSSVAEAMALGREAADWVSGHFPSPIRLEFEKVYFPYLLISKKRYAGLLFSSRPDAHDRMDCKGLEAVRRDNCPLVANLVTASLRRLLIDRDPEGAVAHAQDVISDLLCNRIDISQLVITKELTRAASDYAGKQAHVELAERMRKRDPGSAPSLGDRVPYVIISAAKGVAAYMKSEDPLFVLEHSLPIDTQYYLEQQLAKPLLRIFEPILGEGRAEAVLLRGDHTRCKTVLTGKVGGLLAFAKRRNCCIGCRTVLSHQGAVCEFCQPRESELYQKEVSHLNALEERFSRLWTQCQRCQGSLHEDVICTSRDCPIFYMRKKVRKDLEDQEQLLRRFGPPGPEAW
UniProt O75367: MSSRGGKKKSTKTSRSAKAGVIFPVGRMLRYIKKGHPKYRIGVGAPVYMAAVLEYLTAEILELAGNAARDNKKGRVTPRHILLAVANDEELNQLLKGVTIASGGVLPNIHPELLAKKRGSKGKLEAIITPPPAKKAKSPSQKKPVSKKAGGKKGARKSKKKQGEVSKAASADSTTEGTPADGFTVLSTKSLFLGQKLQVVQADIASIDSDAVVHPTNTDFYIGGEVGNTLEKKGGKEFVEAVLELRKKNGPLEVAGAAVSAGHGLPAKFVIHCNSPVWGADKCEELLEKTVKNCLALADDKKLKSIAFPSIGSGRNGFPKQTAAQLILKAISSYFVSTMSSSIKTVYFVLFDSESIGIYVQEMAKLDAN
UniProt P35249: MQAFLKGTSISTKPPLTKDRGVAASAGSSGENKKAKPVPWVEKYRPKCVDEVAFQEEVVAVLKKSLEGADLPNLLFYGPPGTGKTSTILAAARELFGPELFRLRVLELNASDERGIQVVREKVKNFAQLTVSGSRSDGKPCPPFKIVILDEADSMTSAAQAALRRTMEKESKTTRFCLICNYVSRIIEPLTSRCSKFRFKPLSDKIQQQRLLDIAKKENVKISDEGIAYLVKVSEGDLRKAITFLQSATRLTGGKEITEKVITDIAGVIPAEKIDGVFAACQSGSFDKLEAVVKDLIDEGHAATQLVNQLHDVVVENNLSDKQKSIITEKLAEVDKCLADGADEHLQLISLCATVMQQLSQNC
UniProt P40937: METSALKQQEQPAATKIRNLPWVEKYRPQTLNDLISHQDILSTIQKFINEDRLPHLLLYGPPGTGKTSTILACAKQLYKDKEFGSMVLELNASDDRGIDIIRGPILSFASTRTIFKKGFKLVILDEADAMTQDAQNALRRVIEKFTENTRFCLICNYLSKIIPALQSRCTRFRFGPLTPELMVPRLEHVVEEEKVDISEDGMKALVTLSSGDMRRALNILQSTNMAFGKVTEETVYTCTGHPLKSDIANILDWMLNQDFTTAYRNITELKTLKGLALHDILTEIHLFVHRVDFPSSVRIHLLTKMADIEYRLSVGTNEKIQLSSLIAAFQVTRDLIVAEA

The target of assay [1] is T1, MYSM1-Flag (Myb-like Swirm and MPN domain containing 1, 2A-DUB/MYSM1) (UniProt Q5VVJ2).
T1 sequence: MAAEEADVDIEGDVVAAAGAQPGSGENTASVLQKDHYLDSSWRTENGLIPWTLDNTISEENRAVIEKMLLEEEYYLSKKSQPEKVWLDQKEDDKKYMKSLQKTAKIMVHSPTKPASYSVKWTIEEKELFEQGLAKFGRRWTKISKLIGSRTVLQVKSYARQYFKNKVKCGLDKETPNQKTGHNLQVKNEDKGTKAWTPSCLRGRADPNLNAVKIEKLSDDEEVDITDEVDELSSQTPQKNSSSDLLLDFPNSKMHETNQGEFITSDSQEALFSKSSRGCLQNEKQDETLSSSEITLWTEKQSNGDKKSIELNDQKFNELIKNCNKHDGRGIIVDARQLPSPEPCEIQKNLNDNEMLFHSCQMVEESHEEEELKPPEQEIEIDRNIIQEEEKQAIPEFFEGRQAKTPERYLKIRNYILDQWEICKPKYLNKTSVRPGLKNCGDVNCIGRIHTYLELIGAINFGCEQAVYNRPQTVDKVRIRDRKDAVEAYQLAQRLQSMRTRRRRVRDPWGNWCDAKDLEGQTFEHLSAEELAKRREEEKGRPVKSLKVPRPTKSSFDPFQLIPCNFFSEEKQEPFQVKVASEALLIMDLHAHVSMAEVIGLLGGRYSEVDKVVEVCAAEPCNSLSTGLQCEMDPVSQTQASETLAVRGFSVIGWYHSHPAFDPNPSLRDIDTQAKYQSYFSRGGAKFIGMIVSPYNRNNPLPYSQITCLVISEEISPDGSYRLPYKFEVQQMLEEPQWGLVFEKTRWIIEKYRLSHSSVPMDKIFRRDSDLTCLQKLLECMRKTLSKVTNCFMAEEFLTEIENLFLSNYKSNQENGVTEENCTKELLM
Description: affinity purification with mass spectrometry; anti-Flag (vs. control IgG) co-IP from RIPA lysates of 293T cells transiently expressing MYSM1-Flag (control GFP-Flag), treated with etoposide or DMSO for the last 6 h; eluates fractionated by SDS-PAGE, trypsin digest, SCX-HPLC-MS/MS (Orbitrap Velos Pro), label-free quantification with MaxQuant.

Assay [2] concerns the target T1, MYSM1-Flag (Myb-like Swirm and MPN domain containing 1, 2A-DUB/MYSM1). The assay is described as above. This is another data set of the same source.

Read-outs that look alike come from different tables or passages of the source. Results are given in words; binding and its absence hold for the method and conditions named. Binding seen in cells or lysates may run through a third protein. A yes stands for co-enrichment or nearness to the bait. Other partners may have been found. Sequences can lack the tags named with a protein.

As to Lamin B1 (from UniProt P20700 1-586), the binding entry in assay [1] is given as “binds weakly”.

MSH6 (from UniProt P52701 1-1360): in assay [1], the binding result is listed as “binds weakly”. On the same count and under the same terms, the result for “POLD1 (from UniProt P28340 1-1107) (enzyme)” reads “binds weakly”. For macroH2A.1 (from UniProt O75367 1-369), in assay [1], the binding result is “binds”. As to “replication factor C (RFC) 4 (from UniProt P35249 1-363)”, the binding result in assay [1] was “binds”. As to “replication factor C subunit RFC5 (from UniProt P40937 1-340)”, the binding result in assay [1] is “binds”.

B1: thymidine kinase 1 (TK1) (enzyme, UniProt P04183 1-234)
chain: MSCINLPTVLPGSPSKTRGQIQVILGPMFSGKSTELMRRVRRFQIAQYKCLVIKYAKDTRYSSSFCTHDRNTMEALPACLLRDVAQEALGVAVIGIDEGQFFPDIVEFCEAMANAGKTVIVAALDGTFQRKPFGAILNLVPLAESVVKLTAVCMECFREAAYTKRLGTEKEVEVIGGADKYHSVCRLCYFKKASGQPAGPDNKENCPVPGKPGEAVAARKLFAPQQILQCSPAN
On to B1, for which the binding entry in assay [2] was “binds”.

B2: BRCA1-associated ATM activator 1 (BRAT1) (protein, UniProt Q6PJG6 1-821)
chain: MDPECAQLLPALCAVLVDPRQPVADDTCLEKLLDWFKTVTEGESSVVLLQEHPCLVELLSHVLKVQDLSSGVLSFSLRLAGTFAAQENCFQYLQQGELLPGLFGEPGPLGRATWAVPTVRSGWIQGLRSLAQHPSALRFLADHGAVDTIFSLQGDSSLFVASAASQLLVHVLALSMRGGAEGQPCLPGGDWPACAQKIMDHVEESLCSAATPKVTQALNVLTTTFGRCQSPWTEALWVRLSPRVACLLERDPIPAAHSFVDLLLCVARSPVFSSSDGSLWETVARALSCLGPTHMGPLALGILKLEHCPQALRTQAFQVLLQPLACVLKATVQAPGPPGLLDGTADDATTVDTLLASKSSCAGLLCRTLAHLEELQPLPQRPSPWPQASLLGATVTVLRLCDGSAAPASSVGGHLCGTLAGCVRVQRAALDFLGTLSQGTGPQELVTQALAVLLECLESPGSSPTVLKKAFQATLRWLLSSPKTPGCSDLGPLIPQFLRELFPVLQKRLCHPCWEVRDSALEFLTQLSRHWGGQADFRCALLASEVPQLALQLLQDPESYVRASAVTAMGQLSSQGLHAPTSPEHAEARQSLFLELLHILSVDSEGFPRRAVMQVFTEWLRDGHADAAQDTEQFVATVLQAASRDLDWEVRAQGLELALVFLGQTLGPPRTHCPYAVALPEVAPAQPLTEALRALCHVGLFDFAFCALFDCDRPVAQKSCDLLLFLRDKIASYSSLREARGSPNTASAEATLPRWRAGEQAQPPGDQEPEAVLAMLRSLDLEGLRSTLAESSDHVEKSPQSLLQDMLATGGFLQGDEADCY
Turning to B2, the binding result in assay [2] was “binds”.

B3: DNA helicase HELLS (enzyme, UniProt Q9NRZ9 1-838)
chain: MPAERPAGSGGSEAPAMVEQLDTAVITPAMLEEEEQLEAAGLERERKMLEKARMSWDRESTEIRYRRLQHLLEKSNIYSKFLLTKMEQQQLEEQKKKEKLERKKESLKVKKGKNSIDASEEKPVMRKKRGREDESYNISEVMSKEEILSVAKKNKKENEDENSSSTNLCVEDLQKNKDSNSIIKDRLSETVRQNTKFFFDPVRKCNGQPVPFQQPKHFTGGVMRWYQVEGMEWLRMLWENGINGILADEMGLGKTVQCIATIALMIQRGVPGPFLVCGPLSTLPNWMAEFKRFTPDIPTMLYHGTQEERQKLVRNIYKRKGTLQIHPVVITSFEIAMRDRNALQHCYWKYLIVDEGHRIKNMKCRLIRELKRFNADNKLLLTGTPLQNNLSELWSLLNFLLPDVFDDLKSFESWFDITSLSETAEDIIAKEREQNVLHMLHQILTPFLLRRLKSDVALEVPPKREVVVYAPLSKKQEIFYTAIVNRTIANMFGSSEKETIELSPTGRPKRRTRKSINYSKIDDFPNELEKLISQIQPEVDRERAVVEVNIPVESEVNLKLQNIMMLLRKCCNHPYLIEYPIDPVTQEFKIDEELVTNSGKFLILDRMLPELKKRGHKVLLFSQMTSMLDILMDYCHLRDFNFSRLDGSMSYSEREKNMHSFNTDPEVFIFLVSTRAGGLGINLTAADTVIIYDSDWNPQSDLQAQDRCHRIGQTKPVVVYRLVTANTIDQKIVERAAAKRKLEKLIIHKNHFKGGQSGLNLSKNFLDPKELMELLKSRDYEREIKGSREKVISDKDLELLLDRSDLIDQMNASGPIKEKMGIFKILENSEDSSPECLF
Take B3: the binding result in assay [2] is on record as “binds”.
